Assay results taken from PMC6325694.
These are yes or no findings as the source states them, for the method shown. In cells and extracts the contact can be indirect. Here binding means that the protein was enriched with, or labelled near, the bait; the list need not be complete. A no says only that the protein was not detected with the bait.

Protein sequences, listed by entry. Tags and fused reporters are not part of them.
UniProt V6CLA2: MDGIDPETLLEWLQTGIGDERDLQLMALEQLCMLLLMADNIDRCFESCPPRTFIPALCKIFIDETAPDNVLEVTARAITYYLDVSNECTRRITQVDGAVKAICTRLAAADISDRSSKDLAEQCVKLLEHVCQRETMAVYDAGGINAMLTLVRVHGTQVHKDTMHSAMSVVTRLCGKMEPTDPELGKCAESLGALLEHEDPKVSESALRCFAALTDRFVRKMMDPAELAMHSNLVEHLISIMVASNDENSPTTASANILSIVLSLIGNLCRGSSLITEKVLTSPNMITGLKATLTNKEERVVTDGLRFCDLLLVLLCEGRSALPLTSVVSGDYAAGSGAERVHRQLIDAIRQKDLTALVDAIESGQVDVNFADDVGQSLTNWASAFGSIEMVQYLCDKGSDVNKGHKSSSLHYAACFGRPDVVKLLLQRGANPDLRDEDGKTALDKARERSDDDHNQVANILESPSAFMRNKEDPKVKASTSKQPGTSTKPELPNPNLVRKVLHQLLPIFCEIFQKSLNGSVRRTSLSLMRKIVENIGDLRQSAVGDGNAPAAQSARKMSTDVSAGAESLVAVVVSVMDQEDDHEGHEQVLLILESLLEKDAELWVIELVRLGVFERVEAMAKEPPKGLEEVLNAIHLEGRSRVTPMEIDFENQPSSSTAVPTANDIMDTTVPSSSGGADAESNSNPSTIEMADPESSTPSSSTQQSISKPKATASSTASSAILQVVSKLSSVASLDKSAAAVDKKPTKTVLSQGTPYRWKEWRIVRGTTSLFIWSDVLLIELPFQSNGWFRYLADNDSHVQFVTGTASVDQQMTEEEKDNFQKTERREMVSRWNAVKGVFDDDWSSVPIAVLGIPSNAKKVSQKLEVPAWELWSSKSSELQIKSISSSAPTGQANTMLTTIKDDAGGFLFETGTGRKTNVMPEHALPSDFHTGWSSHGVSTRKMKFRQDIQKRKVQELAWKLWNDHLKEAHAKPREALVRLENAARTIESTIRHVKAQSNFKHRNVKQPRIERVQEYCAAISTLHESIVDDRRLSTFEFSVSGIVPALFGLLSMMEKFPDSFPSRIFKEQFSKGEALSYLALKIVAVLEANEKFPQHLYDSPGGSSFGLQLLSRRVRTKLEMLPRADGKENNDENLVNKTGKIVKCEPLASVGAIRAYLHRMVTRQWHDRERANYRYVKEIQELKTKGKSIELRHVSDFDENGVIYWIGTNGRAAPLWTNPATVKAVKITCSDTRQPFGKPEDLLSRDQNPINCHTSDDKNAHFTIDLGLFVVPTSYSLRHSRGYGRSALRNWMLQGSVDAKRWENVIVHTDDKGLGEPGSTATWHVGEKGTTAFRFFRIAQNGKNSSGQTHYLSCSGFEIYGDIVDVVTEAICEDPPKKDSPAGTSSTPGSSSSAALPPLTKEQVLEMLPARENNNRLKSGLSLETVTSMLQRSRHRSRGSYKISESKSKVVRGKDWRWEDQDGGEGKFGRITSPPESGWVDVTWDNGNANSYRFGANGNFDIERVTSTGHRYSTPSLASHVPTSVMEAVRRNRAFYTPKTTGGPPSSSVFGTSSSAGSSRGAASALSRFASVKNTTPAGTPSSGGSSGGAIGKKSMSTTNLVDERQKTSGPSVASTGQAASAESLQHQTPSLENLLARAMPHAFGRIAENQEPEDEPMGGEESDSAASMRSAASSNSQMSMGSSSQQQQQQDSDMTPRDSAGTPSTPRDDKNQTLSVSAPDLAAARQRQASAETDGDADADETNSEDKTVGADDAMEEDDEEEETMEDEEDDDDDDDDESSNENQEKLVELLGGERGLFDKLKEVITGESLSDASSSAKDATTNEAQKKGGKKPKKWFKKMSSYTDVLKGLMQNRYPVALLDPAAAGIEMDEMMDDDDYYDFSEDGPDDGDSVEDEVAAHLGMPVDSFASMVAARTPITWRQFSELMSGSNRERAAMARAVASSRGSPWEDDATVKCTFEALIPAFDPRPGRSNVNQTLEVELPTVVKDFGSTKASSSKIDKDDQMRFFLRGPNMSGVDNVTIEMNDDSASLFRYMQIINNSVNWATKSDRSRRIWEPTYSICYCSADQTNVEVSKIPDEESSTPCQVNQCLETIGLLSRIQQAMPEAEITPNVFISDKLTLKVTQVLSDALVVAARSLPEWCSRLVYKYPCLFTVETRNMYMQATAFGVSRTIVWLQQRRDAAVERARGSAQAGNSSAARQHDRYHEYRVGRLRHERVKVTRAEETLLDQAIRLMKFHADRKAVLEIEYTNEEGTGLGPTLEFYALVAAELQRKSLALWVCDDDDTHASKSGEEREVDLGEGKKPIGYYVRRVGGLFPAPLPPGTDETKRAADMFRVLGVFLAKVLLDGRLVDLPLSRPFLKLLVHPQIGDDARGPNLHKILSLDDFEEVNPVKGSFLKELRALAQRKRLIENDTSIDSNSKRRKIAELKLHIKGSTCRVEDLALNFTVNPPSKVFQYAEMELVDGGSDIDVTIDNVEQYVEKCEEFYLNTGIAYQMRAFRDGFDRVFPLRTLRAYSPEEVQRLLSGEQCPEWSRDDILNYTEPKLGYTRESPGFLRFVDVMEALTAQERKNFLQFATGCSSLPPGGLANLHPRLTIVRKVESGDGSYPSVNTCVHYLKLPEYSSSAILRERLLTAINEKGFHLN
UniProt P90916: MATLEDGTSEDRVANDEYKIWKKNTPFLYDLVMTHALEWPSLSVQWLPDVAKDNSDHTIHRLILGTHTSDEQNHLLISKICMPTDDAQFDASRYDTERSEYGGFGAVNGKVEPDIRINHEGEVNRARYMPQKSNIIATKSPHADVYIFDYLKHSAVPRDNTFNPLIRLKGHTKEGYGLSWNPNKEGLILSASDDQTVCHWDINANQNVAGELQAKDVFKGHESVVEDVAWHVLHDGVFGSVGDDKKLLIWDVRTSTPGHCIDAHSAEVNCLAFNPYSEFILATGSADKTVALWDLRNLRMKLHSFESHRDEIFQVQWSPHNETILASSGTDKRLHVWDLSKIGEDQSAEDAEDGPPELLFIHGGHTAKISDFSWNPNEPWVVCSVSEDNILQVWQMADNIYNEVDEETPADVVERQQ
UniProt Q9U263: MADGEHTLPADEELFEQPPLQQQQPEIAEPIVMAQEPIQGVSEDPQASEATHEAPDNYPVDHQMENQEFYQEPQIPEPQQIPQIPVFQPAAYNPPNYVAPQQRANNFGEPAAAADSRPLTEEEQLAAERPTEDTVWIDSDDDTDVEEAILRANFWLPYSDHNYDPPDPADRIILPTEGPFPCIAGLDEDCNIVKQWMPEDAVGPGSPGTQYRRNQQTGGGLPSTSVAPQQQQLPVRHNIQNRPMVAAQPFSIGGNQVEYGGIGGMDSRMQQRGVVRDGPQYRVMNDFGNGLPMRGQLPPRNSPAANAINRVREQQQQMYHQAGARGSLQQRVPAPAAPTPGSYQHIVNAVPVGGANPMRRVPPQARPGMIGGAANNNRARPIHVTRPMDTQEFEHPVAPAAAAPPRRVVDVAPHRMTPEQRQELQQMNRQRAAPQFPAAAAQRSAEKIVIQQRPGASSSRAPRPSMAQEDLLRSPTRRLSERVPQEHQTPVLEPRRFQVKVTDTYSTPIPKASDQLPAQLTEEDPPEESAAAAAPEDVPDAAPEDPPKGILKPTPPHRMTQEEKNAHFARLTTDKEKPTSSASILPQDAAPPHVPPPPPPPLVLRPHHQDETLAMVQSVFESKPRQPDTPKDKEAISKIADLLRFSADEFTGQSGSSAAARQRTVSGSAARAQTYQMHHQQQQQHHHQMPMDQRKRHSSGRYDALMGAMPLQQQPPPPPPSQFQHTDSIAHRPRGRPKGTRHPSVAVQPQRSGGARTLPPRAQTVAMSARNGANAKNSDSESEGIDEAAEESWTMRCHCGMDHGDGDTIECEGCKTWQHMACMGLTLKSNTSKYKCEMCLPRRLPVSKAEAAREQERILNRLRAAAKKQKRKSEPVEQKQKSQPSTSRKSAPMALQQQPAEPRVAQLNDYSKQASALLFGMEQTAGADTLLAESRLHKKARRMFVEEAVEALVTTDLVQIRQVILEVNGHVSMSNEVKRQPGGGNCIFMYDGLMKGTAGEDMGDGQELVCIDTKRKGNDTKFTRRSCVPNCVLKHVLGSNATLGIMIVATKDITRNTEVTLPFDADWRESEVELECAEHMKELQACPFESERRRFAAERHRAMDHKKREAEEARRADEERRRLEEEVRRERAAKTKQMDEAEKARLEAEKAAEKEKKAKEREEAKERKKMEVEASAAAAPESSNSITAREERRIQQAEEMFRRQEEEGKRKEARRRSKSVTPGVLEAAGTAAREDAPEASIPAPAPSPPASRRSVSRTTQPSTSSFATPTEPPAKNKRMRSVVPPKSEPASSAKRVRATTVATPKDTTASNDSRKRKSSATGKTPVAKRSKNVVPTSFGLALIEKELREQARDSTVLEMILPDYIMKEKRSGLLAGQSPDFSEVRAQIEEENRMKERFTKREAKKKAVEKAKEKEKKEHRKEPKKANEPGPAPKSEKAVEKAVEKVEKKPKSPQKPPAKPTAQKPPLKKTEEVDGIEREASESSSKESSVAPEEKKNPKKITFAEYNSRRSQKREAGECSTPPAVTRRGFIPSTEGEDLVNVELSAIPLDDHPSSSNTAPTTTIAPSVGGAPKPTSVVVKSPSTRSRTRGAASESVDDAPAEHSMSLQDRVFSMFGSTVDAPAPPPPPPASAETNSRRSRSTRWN
UniProt A5JYW9: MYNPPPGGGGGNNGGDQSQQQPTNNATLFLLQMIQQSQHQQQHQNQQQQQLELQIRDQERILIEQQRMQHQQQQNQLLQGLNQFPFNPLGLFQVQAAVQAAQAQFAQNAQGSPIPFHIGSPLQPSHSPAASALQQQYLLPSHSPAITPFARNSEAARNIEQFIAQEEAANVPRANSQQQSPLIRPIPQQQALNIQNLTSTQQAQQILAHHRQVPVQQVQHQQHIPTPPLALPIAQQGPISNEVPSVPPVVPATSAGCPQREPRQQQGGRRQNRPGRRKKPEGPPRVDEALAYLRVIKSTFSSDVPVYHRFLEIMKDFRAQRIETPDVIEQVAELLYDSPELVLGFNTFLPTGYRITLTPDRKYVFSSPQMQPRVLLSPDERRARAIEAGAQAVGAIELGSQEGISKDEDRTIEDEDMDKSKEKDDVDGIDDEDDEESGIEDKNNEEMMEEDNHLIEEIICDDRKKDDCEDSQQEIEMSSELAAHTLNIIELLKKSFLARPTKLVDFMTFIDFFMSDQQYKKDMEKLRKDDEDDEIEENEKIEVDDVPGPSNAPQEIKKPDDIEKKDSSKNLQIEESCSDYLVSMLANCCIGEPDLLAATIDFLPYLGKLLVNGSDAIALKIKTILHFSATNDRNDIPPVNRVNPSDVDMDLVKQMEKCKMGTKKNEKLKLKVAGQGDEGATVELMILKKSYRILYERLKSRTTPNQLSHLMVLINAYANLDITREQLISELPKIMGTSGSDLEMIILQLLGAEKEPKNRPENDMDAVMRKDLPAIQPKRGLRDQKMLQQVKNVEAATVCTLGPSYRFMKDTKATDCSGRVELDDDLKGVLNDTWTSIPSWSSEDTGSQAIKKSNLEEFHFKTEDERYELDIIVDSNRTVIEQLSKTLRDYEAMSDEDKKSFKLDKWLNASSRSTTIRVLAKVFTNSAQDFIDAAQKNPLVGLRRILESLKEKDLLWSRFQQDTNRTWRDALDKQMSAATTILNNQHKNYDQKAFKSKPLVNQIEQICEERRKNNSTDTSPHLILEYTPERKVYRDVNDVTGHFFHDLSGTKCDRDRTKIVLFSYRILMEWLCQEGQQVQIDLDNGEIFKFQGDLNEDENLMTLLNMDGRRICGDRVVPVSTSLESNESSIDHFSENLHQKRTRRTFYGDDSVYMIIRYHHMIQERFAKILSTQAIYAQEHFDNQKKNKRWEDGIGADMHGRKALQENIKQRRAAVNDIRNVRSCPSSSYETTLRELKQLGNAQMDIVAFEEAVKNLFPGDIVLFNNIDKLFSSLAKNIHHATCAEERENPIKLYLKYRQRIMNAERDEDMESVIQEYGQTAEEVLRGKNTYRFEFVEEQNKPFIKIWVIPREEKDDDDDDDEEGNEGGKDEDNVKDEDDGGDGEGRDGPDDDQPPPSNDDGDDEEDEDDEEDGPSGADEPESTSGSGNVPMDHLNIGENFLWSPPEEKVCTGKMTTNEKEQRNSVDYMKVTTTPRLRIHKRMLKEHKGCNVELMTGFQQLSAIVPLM

Columns and labels:
[1] = target: T1, MRG-1 (C. elegans (endogenous in L4 worms)) (UniProt A7DTF0); experiment: affinity purification with mass spectrometry; IP-MS in triplicate from lysates of L4-stage wild-type (N2) worms with anti-MRG-1 (Novus), preimmune serum as control; µMACS ProteinA beads; lysis buffer 20 mM HEPES pH 7.4, 150 mM NaCl, 2 mM MgCl2, 0.1% Tween 20; 4°; label-free quantification
T1 sequence: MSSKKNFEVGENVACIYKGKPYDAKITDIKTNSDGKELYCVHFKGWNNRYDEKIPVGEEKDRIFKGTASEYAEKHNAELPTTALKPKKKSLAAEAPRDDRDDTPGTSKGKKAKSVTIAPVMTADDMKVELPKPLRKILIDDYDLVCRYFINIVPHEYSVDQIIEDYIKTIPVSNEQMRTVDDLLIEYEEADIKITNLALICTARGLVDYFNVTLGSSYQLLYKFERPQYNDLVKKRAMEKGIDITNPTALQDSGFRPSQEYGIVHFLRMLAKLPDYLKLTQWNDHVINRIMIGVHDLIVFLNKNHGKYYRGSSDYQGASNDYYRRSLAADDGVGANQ

[2] = target: T2, MRG-1::3xHA (C. elegans (endogenous in L4 worms)) (UniProt A7DTF0); experiment: affinity purification with mass spectrometry; IP-MS in triplicate from lysates of L4-stage mrg-1::3xHA^CRISPR worms with HA antibodies (Roche), N2 lysates (no HA tag) as negative control; µMACS ProteinA beads; lysis buffer 20 mM HEPES pH 7.4, 150 mM NaCl, 2 mM MgCl2, 0.1% Tween 20; 4°; label-free quantification
T2 sequence: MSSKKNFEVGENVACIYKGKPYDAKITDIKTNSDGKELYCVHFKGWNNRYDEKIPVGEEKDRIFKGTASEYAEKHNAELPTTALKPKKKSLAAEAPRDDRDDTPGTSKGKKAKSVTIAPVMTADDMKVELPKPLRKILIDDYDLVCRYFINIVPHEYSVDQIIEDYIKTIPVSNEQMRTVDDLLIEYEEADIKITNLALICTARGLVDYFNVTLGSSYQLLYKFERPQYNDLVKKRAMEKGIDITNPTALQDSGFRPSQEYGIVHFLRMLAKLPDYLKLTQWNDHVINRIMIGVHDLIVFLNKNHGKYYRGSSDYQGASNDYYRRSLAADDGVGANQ

## ATHP-1 (C. elegans (endogenous in L4 worms))
[1]
  binding: binds
[2]
  binding: binds

## HECD-1 (from UniProt V6CLA2 1-2648)
[1]
  binding: binds
[2]
  binding: binds

## LIN-53 (from UniProt P90916 1-417)
[1]
  binding: no binding
[2]
  binding: no binding

## SET-26 (from UniProt Q9U263 1-1645) (enzyme)
[1]
  binding: binds
[2]
  binding: binds

## SIN-3 (from UniProt A5JYW9 1-1507)
[1]
  binding: binds
[2]
  binding: binds

B1: OGT-1 (enzyme, UniProt O18158 1-1151)
chain: MEKPNYFQSYNKVIGATGEQLAPGAVPPHPVLAPSIAPGGVAGVSAANMANIMQTPGFANLVQQAIRTQLENQAAQQLAVNQQFQLNGATAVQQQLLLTPQQSLAQPIALAPQPTVVLNGVSETLKKVTELAHRQFQSGNYVEAEKYCNLVFQSDPNNLPTLLLLSAINFQTKNLEKSMQYSMLAIKVNNQCAEAYSNLGNYYKEKGQLQDALENYKLAVKLKPEFIDAYINLAAALVSGGDLEQAVTAYFNALQINPDLYCVRSDLGNLLKAMGRLEEAKVCYLKAIETQPQFAVAWSNLGCVFNSQGEIWLAIHHFEKAVTLDPNFLDAYINLGNVLKEARIFDRAVSAYLRALNLSGNHAVVHGNLACVYYEQGLIDLAIDTYKKAIDLQPHFPDAYCNLANALKEKGSVVEAEQMYMKALELCPTHADSQNNLANIKREQGKIEDATRLYLKALEIYPEFAAAHSNLASILQQQGKLNDAILHYKEAIRIAPTFADAYSNMGNTLKEMGDSSAAIACYNRAIQINPAFADAHSNLASIHKDAGNMAEAIQSYSTALKLKPDFPDAYCNLAHCHQIICDWNDYDKRVRKLVQIVEDQLCKKRLPSVHPHHSMLYPLSHAARIAIAAKHASLCFDKVHVQMLGKTPLIHADRFSVQNGQRLRIGYVSSDFGNHPTSHLMQSIPGMHDRSRVEVFCYALSVNDGTNFRSKLMNESEHFVDLSQIPCNGKAAEKIAQDGIHILINMNGYTKGARNEIFALRPAPIQVMWLGYPSTSGATFMDYIITDAVTSPLRLANAFTEKLAYMPHTFFIGDHAQMLRHLTDKVVVKDKETTERDSCLIMNTANMDPILAKSEIKEQVLDTEVVSGPNKELVRAEMVLPVLEVPTEPIKQMIMTGQMTMNVMEDMNVQNGLGQSQMHHKAATGEEIPNSVLLTSRAQYQLPDDAIVFCNFNQLYKIDPSTLDMWIKILENVPKSILWLLRFPYQGEEHIRKYCVERGLDPSRIVFSNVAAKEEHVRRGQLADVCLDTPLCNGHTTGMDILWTGTPMVTMPLESLASRVATSQLYALGVPELVAKTRQEYVSIAVRLGTDADHLANMRAKVWMARTSSTLFDVKQYCHDMEDLLGQMWKRYESGMPIDHITNNTETPHGL
[1]
  binding: binds
[2]
  binding: binds

B2: SUMV2 (protein, UniProt Q22992 1-1145)
chain: MKPGRKSLPKKNRASNITEKMPTTSTEAQSSSSKNQDRCRSFSQELGVDDEPEEQQAPVATPKQTKKAQKTAKTTEEVKSPRKSARKSELKKPEPEEKAKEPRKSASKRKSSSLMNKDEPSTSTEAPSADVPGTSEASDEASEIQEAPENPNSALAIKKRLMGGGESSKSAPTKNPPKARKSNVKKPEKEAEALAPPEPPAEPQEAAETPAPEPLVPEKKPKIEDAPTTSSPKKSTPTSAPPTRASARVSKPNRLYADGSFNTEILGRTRITEQNPVKEAQAKESTPELADLPLPAGRRKSTAAPRAPPAPKPIPVINGVLRGYIPSVKVPLAEYEVDGEIINLNEGVNETMDTILAKVCEDGVEKHEDIDPKVVKAKKLAKIDYTKRLKLQVKKLDIQMRIKIPSTPEELGKRKRQAPKTDDFYWSAQSRTKLKGSSKEREETPAFDEESPIGGDEKRQQKARESISHLFDAEMDASIKEAKKYSVSFDKYIKPKITGALKHAKIKLMSRKRQSAEPDDFYYHELLVDQVSPSNSNVENVDVDVDIEETDDKVDPTEFEISEEGVIGIRDEAVDMAEQIALVIPRPTKHDGSPMSMDEIQMRAMEHVESRTKCLDGSLEIVLNQLGHEMAPPTRGVEEQGCQWHTVTSANAQALKNLYTIANNCTEDAITWTHQFMIENLEVHMLASYLSILKYAKRLNSSRFGYVISSTDQLDPEWTQVTSLLKSFVYKRHTEPGTEVLNNTIPYHRMTDTVFLLVPPTLTFGDHQRAPPRHHARIFRWLQSIGHQDSEFISFDEDIDATCSVAEYLSDVIVERICDKVRQKNKYRPNCNVVLVGYGASTYLIHRAANLVEGISAIISIGFPVMTSLGRRGTADDEILLTYCPTLFIVGAEGRRFNNEAITELRTSMISPSGLVVVGHSNDMILVPTSMLLRLGISQTVVFRMVLEKILDFLNLEPVRQQEFADLVPIELNNVFDLDSALLKSDKALSGLAFASSTHSASSSAAPSPVGASGRRATVTGAGSEDIAKRRKESIILSQQIAAPSISGPPPPAPSPRTEDRFLAFQNLVASTITTGDDMPRRASMGASPRVIERGDFRDHRPPPPPPLPILQNPVATPMSQQPPLPSPAPPPPRGPVDPASISLI
[1]
  binding: binds
[2]
  binding: binds

B3: MES-4 (enzyme, UniProt Q9NH52 1-898)
chain: MLPSSGDSSKENCAPQDGIVEKEGPNKPFKKKNVKQRNATPQGAGSETSSNAEDKQEEAPILTNAPKDIISMQIQETKAFLSEYEEFVDTDYPKTTFTHVPRKFLSVSPFTPIEADAEGEFLPDADSKCVICHEEKDKTGKSDLITCHGYINGEMDDGKRLLGNIPMFPCRSKFHASCMINYNSGGFHFQYAARLECQARLLCPLHCCNSCNLDHHKQSAYVGDIAECALCLRAFHLTSCYPSGGRDLNVSITIGGKVEKFEMIICPAHYLPGADVQFYNKHKKRKNAVTVVPKADVTMKSHIKACCVIGCEKSSNSKTIMCKTCCRSFHSGCREVETLNGKPIPDDQCESCVCGDPIPQNTLILAKWTDNSFWLALTLDWYKYPTGNRGNINFERLGYTVVQWLIPQENDKEKQPLMSIVPVSDIARLTKNYFSLAKNSTLRNLWEEKYEEQADTALKRCPYVCKTVFGRLRTSVYYKCEPKLEEYHNNEVCNCEGADRCTKLSCQYLADDYECPPSCSKKGVCHNRQVSMGIVSEKIKLAATLCKGYGVFAKGQIEKDEYICEYVGEIIDKAEKKRRLDSVSISRDFQANHYMMELHKGLTVDAARYGNISRYINHSCDPNAASFVTKVFVKKTKEGSLYDTRSYIRAIRTIDDGDEITFSYNMNNEENLPDCECGAENCMGTMGKAKREKPEVADSSEKAAKKNKSSKKKSVKNQNRKSQEAGKNGTASKKSEISPSKPSTSSASSTSFVQQASWPISQNKKNLKKNSNQPVADTGSTLSTSTELNFHEKPQELLSPVSSRSRAASSSTPRAQKSKSRRDDVESEAPPVKRATPSLQTIQETGKAIEFPATKSAITKARALSTQSVPSPHTVEVKVRAISTRGRVQKETKRFEPI
[1]
  binding: no binding
[2]
  binding: no binding
